No constants are given. Whether binding was seen depends on the method and setting. Some results given as binding are weak or reduced against the parent protein; the word gives no strength. For some assays here: Sequences can lack the tags named with a protein.
Experiments:
mouse DEC205 (mouse) [1] = molecular target: mouse DEC205 (mouse) (UniProt Q60767); experiment: flow cytometry on CHO/mDEC205 cells, hCG a/s and anti-rabbit IgG-FITC
mouse DEC205 (mouse) [2] = molecular target: mouse DEC205 (mouse) (UniProt Q60767); experiment: flow cytometry on mouse bone marrow derived dendritic cells (DEC-205 of mouse DCs)
[3] = molecular target: T1, CR/FNII domain of canine DEC205, GST fusion protein (canine); experiment: ELISA, CR/FNII adsorbed on plate, ScFv-CS-hCG complex, hCG a/s and anti-rabbit IgG-HRP
T1 sequence: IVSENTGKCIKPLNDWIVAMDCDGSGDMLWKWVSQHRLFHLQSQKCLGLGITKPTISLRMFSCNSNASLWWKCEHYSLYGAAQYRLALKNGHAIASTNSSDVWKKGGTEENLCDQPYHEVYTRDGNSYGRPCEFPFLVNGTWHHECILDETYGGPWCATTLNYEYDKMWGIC

By UniProt entry, the sequences of proteins in these tests, tags left out. Where a name states a change or a piece, a line headed by the entry shows the natural chain unless it says otherwise. Residues count along the entry.
UniProt Q60767, residues 28-1723: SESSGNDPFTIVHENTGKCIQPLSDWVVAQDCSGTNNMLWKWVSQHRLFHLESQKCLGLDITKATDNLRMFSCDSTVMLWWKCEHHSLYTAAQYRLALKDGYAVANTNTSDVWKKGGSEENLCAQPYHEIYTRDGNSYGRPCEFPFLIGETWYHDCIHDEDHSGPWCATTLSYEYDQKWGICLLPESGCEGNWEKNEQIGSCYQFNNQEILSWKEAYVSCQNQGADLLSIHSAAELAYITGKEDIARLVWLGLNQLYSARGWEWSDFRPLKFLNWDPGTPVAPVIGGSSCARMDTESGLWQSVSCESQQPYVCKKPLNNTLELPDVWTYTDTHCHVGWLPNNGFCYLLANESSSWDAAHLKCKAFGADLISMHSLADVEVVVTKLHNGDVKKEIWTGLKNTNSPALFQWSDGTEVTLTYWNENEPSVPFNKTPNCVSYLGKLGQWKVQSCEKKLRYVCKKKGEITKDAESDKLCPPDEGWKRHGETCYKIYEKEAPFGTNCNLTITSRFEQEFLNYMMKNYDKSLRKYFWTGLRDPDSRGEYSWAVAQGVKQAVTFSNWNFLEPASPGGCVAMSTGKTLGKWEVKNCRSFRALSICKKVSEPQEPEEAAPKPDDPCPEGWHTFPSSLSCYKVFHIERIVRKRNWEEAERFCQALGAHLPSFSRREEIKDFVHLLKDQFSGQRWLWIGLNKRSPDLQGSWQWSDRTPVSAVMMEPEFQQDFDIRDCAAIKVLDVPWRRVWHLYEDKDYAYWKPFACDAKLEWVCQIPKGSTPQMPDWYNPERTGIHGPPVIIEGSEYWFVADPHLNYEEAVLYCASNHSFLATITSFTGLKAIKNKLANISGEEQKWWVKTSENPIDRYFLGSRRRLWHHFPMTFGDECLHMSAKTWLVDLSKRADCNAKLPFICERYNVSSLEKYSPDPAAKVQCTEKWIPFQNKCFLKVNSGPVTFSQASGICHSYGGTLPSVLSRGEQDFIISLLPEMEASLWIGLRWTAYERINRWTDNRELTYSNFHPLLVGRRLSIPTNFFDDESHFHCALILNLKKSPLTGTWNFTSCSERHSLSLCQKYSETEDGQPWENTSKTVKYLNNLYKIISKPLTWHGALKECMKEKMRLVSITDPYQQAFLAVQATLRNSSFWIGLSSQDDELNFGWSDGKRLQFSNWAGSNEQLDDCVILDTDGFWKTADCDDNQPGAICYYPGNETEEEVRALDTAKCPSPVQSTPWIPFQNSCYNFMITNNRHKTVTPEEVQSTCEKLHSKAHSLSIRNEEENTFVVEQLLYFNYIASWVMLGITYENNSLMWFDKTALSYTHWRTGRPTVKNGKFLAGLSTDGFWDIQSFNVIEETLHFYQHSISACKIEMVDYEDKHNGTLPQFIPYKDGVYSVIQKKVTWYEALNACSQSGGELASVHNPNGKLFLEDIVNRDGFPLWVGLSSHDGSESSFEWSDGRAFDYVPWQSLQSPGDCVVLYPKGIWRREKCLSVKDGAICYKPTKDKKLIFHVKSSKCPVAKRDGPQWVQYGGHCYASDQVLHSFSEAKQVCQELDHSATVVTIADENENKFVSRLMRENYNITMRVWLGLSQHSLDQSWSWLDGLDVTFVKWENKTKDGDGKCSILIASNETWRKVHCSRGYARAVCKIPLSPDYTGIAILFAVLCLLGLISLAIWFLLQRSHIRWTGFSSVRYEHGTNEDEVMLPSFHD
UniProt O60449: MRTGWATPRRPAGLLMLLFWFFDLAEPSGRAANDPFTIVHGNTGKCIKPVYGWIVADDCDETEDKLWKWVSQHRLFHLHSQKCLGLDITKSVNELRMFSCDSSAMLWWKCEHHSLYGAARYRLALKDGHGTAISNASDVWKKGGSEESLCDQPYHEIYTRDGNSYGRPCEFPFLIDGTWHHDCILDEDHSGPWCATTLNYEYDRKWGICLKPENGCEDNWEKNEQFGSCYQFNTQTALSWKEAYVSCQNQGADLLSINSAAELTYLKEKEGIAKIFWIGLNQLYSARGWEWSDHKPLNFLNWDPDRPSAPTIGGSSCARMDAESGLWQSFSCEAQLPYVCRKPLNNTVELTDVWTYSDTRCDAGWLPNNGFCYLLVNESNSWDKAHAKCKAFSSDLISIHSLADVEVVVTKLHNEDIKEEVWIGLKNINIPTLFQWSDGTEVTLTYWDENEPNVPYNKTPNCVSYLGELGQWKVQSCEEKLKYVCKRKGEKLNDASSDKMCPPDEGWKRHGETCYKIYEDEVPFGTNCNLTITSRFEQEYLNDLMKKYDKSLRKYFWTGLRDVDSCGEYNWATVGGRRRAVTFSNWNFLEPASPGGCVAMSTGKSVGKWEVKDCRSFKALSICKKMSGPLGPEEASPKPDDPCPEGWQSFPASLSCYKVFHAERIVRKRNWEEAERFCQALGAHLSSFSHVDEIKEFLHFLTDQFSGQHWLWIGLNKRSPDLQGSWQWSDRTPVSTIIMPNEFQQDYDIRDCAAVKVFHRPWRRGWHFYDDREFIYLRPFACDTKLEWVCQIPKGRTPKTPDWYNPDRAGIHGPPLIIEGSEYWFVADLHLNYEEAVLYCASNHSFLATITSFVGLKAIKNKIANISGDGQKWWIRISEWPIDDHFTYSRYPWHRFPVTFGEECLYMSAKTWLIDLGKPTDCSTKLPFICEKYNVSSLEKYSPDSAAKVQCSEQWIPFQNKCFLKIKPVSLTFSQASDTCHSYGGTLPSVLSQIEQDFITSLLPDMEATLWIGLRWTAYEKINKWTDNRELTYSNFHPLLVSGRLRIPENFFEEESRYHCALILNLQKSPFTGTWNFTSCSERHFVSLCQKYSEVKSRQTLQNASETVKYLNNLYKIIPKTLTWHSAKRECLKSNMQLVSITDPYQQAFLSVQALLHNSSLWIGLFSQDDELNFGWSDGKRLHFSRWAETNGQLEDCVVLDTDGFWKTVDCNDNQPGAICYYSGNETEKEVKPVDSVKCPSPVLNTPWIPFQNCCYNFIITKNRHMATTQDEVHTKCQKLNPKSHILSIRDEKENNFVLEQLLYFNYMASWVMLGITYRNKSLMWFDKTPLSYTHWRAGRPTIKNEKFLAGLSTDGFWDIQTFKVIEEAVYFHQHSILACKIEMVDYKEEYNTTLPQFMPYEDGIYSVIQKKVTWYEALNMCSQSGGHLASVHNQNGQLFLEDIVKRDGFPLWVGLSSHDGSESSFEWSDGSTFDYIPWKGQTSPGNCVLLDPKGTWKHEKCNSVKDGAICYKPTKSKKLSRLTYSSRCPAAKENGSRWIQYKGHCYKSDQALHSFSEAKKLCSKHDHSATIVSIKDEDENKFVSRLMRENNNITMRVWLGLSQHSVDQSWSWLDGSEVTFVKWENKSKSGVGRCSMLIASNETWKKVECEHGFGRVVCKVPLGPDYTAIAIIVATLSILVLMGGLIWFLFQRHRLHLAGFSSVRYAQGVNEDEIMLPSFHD
UniProt P22629: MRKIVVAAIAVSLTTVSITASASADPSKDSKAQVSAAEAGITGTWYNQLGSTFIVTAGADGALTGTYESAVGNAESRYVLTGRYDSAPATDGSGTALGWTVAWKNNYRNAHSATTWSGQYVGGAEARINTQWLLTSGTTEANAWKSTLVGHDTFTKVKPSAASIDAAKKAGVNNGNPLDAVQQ

[4] = molecular target: T1, CR/FNII domain of canine DEC205, GST fusion protein (canine); experiment: ELISA on coated canine CR/FNII, bound hCG detected with hCG a/s and anti-rabbit IgG-HRP
human DEC205 (human) [5] = molecular target: human DEC205 (human) (UniProt O60449); experiment: flow cytometry on human monocyte-derived dendritic cells
human DEC205 (human) [6] = molecular target: human DEC205 (human) (UniProt O60449); experiment: flow cytometry on CHO/hDEC205 cells, hCG a/s and anti-rabbit IgG-FITC

Row | binding (mouse DEC205 (mouse) [1]) | binding (mouse DEC205 (mouse) [2]) | binding [3] | binding [4] | binding (human DEC205 (human) [5]) | binding (human DEC205 (human) [6]) | Substance
1 | binds | binds | binds | binds |  |  | ScFv-CS-hCG complex of ScFv 42 (from UniProt P22629 37-163; P01215 25-116; P0DN86 21-165)
2 | binds | binds | binds | binds |  |  | ScFv-CS-hCG complex of ScFv 12 (from UniProt P22629 37-163; P01215 25-116; P0DN86 21-165)
3 | binds | binds | binds | binds |  |  | ScFv-CS-hCG complex of ScFv 37 (from UniProt P22629 37-163; P01215 25-116; P0DN86 21-165)
4 | binds | binds | binds | binds | binds | binds | ScFv-CS-hCG complex of ScFv 83 (from UniProt P22629 37-163; P01215 25-116; P0DN86 21-165)
5 | binds | binds | binds | binds |  |  | ScFv-CS-hCG complex of ScFv 39 (from UniProt P22629 37-163; P01215 25-116; P0DN86 21-165)
6 | binds | binds | binds | binds |  |  | ScFv-CS-hCG complex of ScFv 92 (from UniProt P22629 37-163; P01215 25-116; P0DN86 21-165)

Source: patent publication US20200347138A1
